The other results are listed elsewhere or left out. Only hits are listed; about a third recur on repeated control peptides.
Key:
Test in all cases: PRISMA enrichment of interactor (LFQ) in peptide spot vs all other peptide spots (log2 fold change); higher = stronger / more specific binding of the interactor to the peptide
ACAA1, P09110 = target: ACAA1, P09110
Method: (§1)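 PRISMA: 221 full-length sORF-encoded peptides (3-15 aa), plus SOS1/GLUT1 control peptides, were spot-synthesized on cellulose membranes in triplicate. Membranes were incubated with HEK293T lysate, and bound proteins were identified by LC-MS/MS with LFQ. Enrichment is the log2 fold change versus all other peptide spots; only significant interactors are listed (cutoff c=6, x0=2.8).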

Chains of the proteins cited; added tags and fusions are not shown.
AP2A2, O94973, UniProt O94973, whole entry: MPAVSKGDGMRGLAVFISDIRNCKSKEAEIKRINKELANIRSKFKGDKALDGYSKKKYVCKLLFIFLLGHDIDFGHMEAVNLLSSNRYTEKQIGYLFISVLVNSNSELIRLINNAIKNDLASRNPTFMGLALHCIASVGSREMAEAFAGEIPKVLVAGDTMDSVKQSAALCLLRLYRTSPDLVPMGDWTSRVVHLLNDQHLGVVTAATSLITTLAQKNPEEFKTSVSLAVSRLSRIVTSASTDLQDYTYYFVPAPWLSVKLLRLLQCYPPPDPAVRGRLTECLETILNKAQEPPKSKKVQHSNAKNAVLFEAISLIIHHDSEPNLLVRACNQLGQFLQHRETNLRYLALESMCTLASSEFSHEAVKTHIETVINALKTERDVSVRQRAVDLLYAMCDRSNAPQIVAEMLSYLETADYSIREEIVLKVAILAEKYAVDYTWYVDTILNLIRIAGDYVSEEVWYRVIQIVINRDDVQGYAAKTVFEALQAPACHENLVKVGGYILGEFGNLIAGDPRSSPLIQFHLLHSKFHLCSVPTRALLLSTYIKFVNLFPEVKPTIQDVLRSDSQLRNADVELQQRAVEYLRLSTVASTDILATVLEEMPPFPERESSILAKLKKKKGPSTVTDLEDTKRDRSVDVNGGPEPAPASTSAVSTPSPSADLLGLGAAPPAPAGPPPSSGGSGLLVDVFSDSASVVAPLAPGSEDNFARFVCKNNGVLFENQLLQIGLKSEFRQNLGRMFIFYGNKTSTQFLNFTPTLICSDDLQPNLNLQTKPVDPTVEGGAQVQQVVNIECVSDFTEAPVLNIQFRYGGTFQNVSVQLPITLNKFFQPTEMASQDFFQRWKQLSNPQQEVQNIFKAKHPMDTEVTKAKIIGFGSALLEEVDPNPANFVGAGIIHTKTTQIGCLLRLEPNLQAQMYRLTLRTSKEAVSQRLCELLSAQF
ATXN2, Q99700, UniProt Q99700, whole entry: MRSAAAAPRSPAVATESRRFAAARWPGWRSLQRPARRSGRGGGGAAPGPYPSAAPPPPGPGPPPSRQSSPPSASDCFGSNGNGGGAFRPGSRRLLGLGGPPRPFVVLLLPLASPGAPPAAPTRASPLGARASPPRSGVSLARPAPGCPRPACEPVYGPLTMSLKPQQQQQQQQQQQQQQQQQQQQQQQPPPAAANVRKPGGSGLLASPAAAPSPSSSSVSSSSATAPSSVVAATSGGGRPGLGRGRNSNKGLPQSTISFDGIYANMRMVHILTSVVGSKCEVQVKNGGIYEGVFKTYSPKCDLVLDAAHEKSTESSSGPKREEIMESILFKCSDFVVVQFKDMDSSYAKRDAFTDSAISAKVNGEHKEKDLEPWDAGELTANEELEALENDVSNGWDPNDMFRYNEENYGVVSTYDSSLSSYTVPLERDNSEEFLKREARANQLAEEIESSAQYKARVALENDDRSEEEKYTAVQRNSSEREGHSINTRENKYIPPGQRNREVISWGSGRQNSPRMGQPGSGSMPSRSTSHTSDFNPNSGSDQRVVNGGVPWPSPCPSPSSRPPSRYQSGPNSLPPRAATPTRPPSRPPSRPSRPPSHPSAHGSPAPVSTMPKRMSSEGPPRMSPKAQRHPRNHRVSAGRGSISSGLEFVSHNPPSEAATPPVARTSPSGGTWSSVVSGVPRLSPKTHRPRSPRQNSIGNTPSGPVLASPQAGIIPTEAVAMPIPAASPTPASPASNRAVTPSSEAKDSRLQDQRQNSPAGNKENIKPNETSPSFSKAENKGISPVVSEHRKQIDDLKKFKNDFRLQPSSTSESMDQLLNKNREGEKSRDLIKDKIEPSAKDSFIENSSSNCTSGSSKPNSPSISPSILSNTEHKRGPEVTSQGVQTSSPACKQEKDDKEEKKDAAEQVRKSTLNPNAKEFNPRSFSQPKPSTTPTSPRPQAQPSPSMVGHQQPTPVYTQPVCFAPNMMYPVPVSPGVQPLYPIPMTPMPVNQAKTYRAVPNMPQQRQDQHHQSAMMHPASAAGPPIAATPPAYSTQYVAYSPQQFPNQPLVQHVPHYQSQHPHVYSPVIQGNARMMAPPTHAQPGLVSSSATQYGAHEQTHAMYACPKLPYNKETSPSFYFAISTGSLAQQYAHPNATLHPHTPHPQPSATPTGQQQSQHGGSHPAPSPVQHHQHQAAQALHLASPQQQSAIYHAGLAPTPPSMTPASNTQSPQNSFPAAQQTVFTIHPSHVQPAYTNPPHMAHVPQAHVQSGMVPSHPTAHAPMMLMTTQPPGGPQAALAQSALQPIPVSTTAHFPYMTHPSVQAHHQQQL
CCAR2, Q8N163, UniProt Q8N163, whole entry: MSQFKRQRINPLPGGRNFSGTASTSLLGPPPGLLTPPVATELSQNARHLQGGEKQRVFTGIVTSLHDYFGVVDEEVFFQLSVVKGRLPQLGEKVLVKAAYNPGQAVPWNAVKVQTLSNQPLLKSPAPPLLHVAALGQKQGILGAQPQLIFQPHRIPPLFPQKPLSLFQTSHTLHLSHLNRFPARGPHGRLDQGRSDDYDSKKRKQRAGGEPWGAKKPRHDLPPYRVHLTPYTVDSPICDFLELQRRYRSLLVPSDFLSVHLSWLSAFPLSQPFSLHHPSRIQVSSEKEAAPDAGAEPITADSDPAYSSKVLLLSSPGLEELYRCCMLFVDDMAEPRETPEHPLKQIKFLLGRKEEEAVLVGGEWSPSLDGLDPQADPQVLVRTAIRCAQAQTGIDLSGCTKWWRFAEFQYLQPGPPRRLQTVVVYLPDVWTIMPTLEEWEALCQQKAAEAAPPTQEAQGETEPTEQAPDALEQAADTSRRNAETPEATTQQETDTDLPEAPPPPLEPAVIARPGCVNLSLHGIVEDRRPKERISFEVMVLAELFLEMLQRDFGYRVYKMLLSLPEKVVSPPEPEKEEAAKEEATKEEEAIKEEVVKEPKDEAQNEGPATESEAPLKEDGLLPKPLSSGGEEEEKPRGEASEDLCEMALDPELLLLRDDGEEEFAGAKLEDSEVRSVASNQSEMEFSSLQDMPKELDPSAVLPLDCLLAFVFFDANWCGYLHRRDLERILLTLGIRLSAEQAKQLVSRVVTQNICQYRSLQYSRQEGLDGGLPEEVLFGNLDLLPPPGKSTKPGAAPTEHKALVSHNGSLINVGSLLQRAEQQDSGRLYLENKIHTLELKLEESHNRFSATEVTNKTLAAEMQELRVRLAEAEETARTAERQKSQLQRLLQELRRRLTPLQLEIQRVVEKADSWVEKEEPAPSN
CHMP2B, Q9UQN3, UniProt Q9UQN3, whole entry: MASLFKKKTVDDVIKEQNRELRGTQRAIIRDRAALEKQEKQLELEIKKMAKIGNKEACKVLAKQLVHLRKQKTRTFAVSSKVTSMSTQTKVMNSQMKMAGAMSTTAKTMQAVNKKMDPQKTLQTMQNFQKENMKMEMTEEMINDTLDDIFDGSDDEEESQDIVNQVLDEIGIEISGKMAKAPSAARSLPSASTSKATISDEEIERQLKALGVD
COA4, Q9NYJ1, UniProt Q9NYJ1, whole entry: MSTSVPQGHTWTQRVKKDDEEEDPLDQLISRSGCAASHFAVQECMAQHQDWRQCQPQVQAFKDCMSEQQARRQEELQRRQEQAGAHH
CPSF6, Q16630, UniProt Q16630, whole entry: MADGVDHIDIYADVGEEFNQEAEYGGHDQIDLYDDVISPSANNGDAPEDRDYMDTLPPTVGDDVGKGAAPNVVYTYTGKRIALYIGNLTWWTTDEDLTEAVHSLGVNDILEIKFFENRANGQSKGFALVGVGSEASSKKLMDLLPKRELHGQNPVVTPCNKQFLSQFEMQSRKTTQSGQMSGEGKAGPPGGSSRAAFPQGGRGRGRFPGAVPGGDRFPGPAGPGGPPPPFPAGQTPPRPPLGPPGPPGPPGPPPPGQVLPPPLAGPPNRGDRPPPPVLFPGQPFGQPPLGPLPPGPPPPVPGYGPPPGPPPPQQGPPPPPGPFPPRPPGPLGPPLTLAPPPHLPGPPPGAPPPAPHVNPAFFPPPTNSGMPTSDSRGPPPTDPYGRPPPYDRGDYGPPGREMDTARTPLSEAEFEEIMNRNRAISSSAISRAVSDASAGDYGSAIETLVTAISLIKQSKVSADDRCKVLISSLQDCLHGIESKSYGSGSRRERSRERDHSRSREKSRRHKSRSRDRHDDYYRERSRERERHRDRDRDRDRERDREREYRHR

ACAT1, P24752 = target: ACAT1, P24752
Method: as §1

ACOT13, Q9NPJ3 = target: ACOT13, Q9NPJ3
Method: as §1

ACOT7, O00154 = target: ACOT7, O00154
Method: as §1

AIP, O00170 = target: AIP, O00170
Method: as §1

ALKBH2, Q6NS38 = target: ALKBH2, Q6NS38
Method: as §1

ALKBH5, Q6P6C2 = target: ALKBH5, Q6P6C2
Method: as §1

AMOT, Q4VCS5 = target: AMOT, Q4VCS5
Method: as §1

ANXA7, P20073 = target: ANXA7, P20073
Method: as §1

AP1B1, Q10567 = target: AP1B1, Q10567
Method: as §1

AP1G1, O43747 = target: AP1G1, O43747
Method: as §1

AP1M1, Q9BXS5 = target: AP1M1, Q9BXS5
Method: as §1

AP2A1, O95782 = target: AP2A1, O95782
Method: as §1

AP2A2, O94973 = target: AP2A2, O94973
Method: as §1

AP2B1, P63010 = target: AP2B1, P63010
Method: as §1

AP2M1, Q96CW1 = target: AP2M1, Q96CW1
Method: as §1

AP2S1, P53680 = target: AP2S1, P53680
Method: as §1

ARHGEF2, Q92974 = target: ARHGEF2, Q92974
Method: as §1

ATXN2, Q99700 = target: ATXN2, Q99700
Method: as §1

ATXN2L, Q8WWM7 = target: ATXN2L, Q8WWM7
Method: as §1

BAIAP2, Q9UQB8 = target: BAIAP2, Q9UQB8
Method: as §1

BCKDK, O14874 = target: BCKDK, O14874
Method: as §1

BOP1, Q14137 = target: BOP1, Q14137
Method: as §1

C19orf53, Q9UNZ5 = target: C19orf53, Q9UNZ5
Method: as §1

CBX8, Q9HC52 = target: CBX8, Q9HC52
Method: as §1

CC2D1A, Q6P1N0 = target: CC2D1A, Q6P1N0
Method: as §1

CCAR2, Q8N163 = target: CCAR2, Q8N163
Method: as §1

CCDC137, Q6PK04 = target: CCDC137, Q6PK04
Method: as §1

CCDC58, Q4VC31 = target: CCDC58, Q4VC31
Method: as §1

CCDC59, Q9P031 = target: CCDC59, Q9P031
Method: as §1

CDC73, Q6P1J9 = target: CDC73, Q6P1J9
Method: as §1

CHMP2A, O43633 = target: CHMP2A, O43633
Method: as §1

CHMP2B, Q9UQN3 = target: CHMP2B, Q9UQN3
Method: as §1

CHMP5, Q9NZZ3 = target: CHMP5, Q9NZZ3
Method: as §1

CKMT1A, P12532 = target: CKMT1A, P12532
Method: as §1

COA4, Q9NYJ1 = target: COA4, Q9NYJ1
Method: as §1

COA7, Q96BR5 = target: COA7, Q96BR5
Method: as §1

CPSF1, Q10570 = target: CPSF1, Q10570
Method: as §1

CPSF6, Q16630 = target: CPSF6, Q16630
Method: as §1

CPSF7, Q8N684 = target: CPSF7, Q8N684
Method: as §1

CSNK1A1, P48729 = target: CSNK1A1, P48729
Method: as §1

CSNK1E, P49674 = target: CSNK1E, P49674
Method: as §1

CSRP2, Q16527 = target: CSRP2, Q16527
Method: as §1

CSTF1, Q05048 = target: CSTF1, Q05048
Method: as §1

CSTF2, P33240 = target: CSTF2, P33240
Method: as §1

B1: ASPN (peptide)
chain: MVDNFYF
PRISMA enrichment of interactor (log2) (ACAA1, P09110): 7.59 | PRISMA enrichment of interactor (log2) (ACAT1, P24752): 5.18 | PRISMA enrichment of interactor (log2) (ACOT13, Q9NPJ3): 3.97 | PRISMA enrichment of interactor (log2) (ACOT7, O00154): 5.21 | PRISMA enrichment of interactor (log2) (AIP, O00170): 4.43 | PRISMA enrichment of interactor (log2) (ALKBH2, Q6NS38): 4.38 | PRISMA enrichment of interactor (log2) (ALKBH5, Q6P6C2): 4.13 | PRISMA enrichment of interactor (log2) (AMOT, Q4VCS5): 5.76 | PRISMA enrichment of interactor (log2) (ANXA7, P20073): 4.67 | PRISMA enrichment of interactor (log2) (AP1B1, Q10567): 6.58 | PRISMA enrichment of interactor (log2) (AP1G1, O43747): 5.61 | PRISMA enrichment of interactor (log2) (AP1M1, Q9BXS5): 6.76 | PRISMA enrichment of interactor (log2) (AP2A1, O95782): 8.91 | PRISMA enrichment of interactor (log2) (AP2A2, O94973): 8.31 | PRISMA enrichment of interactor (log2) (AP2B1, P63010): 8.51 | PRISMA enrichment of interactor (log2) (AP2M1, Q96CW1): 7.87 | PRISMA enrichment of interactor (log2) (AP2S1, P53680): 5.2 | PRISMA enrichment of interactor (log2) (ARHGEF2, Q92974): 4 | PRISMA enrichment of interactor (log2) (ATXN2, Q99700): 5.94 | PRISMA enrichment of interactor (log2) (ATXN2L, Q8WWM7): 6.65 | PRISMA enrichment of interactor (log2) (BAIAP2, Q9UQB8): 5.96 | PRISMA enrichment of interactor (log2) (BCKDK, O14874): 6.49 | PRISMA enrichment of interactor (log2) (BOP1, Q14137): 4.6 | PRISMA enrichment of interactor (log2) (C19orf53, Q9UNZ5): 5.73 | PRISMA enrichment of interactor (log2) (CBX8, Q9HC52): 4.34 | PRISMA enrichment of interactor (log2) (CC2D1A, Q6P1N0): 8.93 | PRISMA enrichment of interactor (log2) (CCAR2, Q8N163): 4.94 | PRISMA enrichment of interactor (log2) (CCDC137, Q6PK04): 6.09 | PRISMA enrichment of interactor (log2) (CCDC58, Q4VC31): 5.42 | PRISMA enrichment of interactor (log2) (CCDC59, Q9P031): 5.25 | PRISMA enrichment of interactor (log2) (CDC73, Q6P1J9): 4.89 | PRISMA enrichment of interactor (log2) (CHMP2A, O43633): 7.02 | PRISMA enrichment of interactor (log2) (CHMP2B, Q9UQN3): 5.35 | PRISMA enrichment of interactor (log2) (CHMP5, Q9NZZ3): 5.76 | PRISMA enrichment of interactor (log2) (CKMT1A, P12532): 5.41 | PRISMA enrichment of interactor (log2) (COA4, Q9NYJ1): 5.2 | PRISMA enrichment of interactor (log2) (COA7, Q96BR5): 7.63 | PRISMA enrichment of interactor (log2) (CPSF1, Q10570): 3.86 | PRISMA enrichment of interactor (log2) (CPSF6, Q16630): 4.89 | PRISMA enrichment of interactor (log2) (CPSF7, Q8N684): 7.34 | PRISMA enrichment of interactor (log2) (CSNK1A1, P48729): 6.67 | PRISMA enrichment of interactor (log2) (CSNK1E, P49674): 7.09 | PRISMA enrichment of interactor (log2) (CSRP2, Q16527): 6.89 | PRISMA enrichment of interactor (log2) (CSTF1, Q05048): 5.61 | PRISMA enrichment of interactor (log2) (CSTF2, P33240): 4.76
